The other results are listed elsewhere or left out.

Protein sequences, listed by entry. Tags and fused reporters are not part of them. Lines headed by an entry give the natural chain unless they say otherwise; changes in a name come on top.
UniProt Q13163: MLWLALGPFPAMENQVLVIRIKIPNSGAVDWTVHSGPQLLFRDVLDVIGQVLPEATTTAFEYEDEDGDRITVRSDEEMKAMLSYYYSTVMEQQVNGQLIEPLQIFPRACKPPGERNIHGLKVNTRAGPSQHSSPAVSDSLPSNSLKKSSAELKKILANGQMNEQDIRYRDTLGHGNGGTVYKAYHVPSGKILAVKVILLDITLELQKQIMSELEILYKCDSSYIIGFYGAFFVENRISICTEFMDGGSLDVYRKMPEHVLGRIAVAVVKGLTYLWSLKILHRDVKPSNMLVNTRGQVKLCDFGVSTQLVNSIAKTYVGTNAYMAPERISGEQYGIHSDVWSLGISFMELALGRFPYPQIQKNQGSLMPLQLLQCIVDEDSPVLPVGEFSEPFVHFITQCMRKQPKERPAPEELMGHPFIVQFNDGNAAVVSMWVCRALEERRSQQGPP
UniProt Q92585: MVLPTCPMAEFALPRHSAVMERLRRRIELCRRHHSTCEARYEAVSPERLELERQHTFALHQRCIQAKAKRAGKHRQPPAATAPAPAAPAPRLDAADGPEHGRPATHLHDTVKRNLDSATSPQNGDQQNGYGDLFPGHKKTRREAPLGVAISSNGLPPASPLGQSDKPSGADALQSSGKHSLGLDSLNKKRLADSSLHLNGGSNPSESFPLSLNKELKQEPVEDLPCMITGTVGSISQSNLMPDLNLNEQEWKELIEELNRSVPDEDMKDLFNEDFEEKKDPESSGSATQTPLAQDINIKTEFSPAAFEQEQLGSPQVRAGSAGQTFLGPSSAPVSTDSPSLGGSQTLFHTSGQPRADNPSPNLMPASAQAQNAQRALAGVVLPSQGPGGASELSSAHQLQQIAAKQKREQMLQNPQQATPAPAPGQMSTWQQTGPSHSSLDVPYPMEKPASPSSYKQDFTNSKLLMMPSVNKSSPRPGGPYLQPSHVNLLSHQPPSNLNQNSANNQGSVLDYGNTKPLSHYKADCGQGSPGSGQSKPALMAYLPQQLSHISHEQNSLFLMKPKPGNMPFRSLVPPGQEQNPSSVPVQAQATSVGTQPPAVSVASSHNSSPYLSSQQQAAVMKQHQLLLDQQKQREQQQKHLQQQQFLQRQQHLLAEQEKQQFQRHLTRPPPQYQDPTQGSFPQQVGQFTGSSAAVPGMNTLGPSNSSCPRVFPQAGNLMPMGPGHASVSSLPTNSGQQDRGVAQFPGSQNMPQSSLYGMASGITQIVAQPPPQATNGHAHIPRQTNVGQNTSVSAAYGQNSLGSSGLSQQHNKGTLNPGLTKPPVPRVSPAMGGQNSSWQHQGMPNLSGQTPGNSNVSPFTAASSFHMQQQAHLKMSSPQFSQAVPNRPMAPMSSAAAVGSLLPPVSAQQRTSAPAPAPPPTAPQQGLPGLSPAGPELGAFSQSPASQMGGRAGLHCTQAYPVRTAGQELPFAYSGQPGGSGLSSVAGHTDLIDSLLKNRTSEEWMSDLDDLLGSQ
UniProt Q15759, whole entry, looked up: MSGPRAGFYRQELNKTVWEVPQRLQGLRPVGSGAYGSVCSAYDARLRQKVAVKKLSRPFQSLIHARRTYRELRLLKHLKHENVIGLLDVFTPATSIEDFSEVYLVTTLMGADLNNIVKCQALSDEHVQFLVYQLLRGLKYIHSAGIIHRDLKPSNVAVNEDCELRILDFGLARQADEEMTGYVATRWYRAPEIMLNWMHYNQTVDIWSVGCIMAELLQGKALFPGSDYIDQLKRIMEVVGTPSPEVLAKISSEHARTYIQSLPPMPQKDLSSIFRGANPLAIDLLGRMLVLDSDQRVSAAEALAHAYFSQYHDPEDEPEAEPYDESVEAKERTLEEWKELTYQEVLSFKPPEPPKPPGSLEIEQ
UniProt Q9UPY8, whole entry, looked up: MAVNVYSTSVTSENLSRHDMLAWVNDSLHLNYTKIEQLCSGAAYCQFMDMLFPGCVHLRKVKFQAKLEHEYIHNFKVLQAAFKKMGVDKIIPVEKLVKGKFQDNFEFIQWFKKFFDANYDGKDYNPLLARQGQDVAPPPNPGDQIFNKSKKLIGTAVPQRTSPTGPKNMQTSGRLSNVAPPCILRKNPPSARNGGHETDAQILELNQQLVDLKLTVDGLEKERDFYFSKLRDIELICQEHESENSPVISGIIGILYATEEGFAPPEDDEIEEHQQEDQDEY
UniProt P07948: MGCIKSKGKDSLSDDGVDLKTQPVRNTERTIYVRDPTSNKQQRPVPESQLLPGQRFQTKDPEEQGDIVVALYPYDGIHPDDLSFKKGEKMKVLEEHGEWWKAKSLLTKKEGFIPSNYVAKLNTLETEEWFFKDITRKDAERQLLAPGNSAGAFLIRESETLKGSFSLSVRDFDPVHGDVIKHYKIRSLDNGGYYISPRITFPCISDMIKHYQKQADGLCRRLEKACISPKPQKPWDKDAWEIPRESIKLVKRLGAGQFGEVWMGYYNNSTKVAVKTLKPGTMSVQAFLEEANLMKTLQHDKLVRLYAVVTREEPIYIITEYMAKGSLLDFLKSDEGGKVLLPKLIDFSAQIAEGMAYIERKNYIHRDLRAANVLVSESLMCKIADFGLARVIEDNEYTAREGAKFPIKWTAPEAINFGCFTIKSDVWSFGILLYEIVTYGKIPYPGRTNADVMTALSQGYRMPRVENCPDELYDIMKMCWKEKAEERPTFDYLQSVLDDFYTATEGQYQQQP
UniProt Q9UI95, whole entry, looked up: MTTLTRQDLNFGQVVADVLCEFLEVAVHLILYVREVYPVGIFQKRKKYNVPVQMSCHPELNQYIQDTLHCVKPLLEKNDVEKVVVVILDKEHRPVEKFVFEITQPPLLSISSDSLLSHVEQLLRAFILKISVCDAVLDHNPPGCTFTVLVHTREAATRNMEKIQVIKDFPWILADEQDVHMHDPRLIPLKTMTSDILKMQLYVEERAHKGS
UniProt Q6P9F7: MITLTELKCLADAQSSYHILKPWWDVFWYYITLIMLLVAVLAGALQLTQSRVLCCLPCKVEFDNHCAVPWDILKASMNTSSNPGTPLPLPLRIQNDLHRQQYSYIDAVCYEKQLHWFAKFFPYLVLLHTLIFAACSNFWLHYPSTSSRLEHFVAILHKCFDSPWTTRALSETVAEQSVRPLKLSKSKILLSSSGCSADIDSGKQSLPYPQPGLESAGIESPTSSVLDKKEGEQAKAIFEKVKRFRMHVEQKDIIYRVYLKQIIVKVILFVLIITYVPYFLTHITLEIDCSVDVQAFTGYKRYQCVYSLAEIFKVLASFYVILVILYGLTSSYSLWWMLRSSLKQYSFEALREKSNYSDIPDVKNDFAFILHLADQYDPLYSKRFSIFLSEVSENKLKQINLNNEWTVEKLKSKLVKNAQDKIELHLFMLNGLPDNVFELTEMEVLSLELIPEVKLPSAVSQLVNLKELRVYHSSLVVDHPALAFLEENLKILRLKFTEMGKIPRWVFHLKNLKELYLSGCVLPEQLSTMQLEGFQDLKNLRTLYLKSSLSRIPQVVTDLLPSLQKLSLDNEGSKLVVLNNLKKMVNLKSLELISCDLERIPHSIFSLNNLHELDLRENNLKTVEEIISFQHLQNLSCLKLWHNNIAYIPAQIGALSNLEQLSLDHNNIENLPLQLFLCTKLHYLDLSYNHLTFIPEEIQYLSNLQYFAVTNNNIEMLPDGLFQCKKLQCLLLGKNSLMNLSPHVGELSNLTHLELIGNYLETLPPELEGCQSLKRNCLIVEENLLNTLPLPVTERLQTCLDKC
UniProt Q86UD3: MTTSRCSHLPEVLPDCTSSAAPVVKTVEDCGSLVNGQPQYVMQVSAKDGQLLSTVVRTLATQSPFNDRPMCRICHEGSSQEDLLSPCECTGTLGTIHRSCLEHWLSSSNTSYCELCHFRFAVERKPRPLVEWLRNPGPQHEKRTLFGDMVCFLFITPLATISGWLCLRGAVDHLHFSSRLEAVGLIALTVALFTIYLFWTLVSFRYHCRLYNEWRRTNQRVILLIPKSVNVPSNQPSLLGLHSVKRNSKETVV
UniProt Q14766: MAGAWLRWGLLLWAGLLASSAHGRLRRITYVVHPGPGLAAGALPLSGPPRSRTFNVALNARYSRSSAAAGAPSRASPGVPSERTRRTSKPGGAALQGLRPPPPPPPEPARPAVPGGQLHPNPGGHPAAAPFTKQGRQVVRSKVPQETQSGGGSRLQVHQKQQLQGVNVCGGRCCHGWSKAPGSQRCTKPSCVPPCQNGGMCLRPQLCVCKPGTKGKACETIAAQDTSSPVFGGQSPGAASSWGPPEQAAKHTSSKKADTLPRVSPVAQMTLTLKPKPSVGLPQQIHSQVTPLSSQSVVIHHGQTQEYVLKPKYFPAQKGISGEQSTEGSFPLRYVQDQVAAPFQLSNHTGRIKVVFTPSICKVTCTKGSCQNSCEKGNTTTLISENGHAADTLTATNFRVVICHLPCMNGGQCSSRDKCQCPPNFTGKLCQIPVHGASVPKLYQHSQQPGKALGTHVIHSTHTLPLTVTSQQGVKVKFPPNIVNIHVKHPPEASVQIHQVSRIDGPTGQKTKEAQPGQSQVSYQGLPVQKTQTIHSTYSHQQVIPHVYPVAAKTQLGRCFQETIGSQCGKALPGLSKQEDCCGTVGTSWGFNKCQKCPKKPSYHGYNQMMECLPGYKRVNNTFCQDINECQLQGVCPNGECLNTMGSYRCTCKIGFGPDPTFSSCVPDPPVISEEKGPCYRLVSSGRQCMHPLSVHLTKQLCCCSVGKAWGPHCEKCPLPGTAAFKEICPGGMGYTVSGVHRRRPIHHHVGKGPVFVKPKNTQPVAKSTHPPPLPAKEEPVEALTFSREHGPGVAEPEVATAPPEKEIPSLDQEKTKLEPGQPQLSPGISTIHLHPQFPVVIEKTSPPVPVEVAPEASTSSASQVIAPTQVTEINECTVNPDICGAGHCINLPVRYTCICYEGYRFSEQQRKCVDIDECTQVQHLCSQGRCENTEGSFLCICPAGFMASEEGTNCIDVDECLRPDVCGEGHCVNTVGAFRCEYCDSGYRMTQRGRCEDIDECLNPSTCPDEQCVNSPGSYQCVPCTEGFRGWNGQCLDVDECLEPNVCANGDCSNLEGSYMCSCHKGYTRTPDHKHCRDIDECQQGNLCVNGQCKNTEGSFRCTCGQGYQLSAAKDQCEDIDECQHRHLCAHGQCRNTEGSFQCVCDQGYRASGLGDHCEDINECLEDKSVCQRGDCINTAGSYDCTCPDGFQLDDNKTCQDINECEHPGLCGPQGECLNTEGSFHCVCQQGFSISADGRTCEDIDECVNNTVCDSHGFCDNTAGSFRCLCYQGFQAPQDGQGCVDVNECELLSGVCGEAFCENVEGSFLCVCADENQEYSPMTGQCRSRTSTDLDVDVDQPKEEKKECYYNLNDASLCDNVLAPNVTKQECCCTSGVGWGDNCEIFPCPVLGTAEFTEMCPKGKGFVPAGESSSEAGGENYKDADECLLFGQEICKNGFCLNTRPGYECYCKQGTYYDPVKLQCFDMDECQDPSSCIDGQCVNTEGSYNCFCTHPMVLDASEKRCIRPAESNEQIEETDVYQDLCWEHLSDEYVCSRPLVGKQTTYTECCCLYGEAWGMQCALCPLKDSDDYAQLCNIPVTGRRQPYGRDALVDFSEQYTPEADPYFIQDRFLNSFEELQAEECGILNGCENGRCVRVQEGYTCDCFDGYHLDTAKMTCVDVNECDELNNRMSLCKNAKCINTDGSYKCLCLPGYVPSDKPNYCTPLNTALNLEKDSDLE
UniProt O15525: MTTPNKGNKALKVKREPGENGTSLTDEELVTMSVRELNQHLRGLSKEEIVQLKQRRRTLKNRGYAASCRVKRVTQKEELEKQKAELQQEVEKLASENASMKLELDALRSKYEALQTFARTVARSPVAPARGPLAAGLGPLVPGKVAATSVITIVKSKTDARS
UniProt Q9H8J5: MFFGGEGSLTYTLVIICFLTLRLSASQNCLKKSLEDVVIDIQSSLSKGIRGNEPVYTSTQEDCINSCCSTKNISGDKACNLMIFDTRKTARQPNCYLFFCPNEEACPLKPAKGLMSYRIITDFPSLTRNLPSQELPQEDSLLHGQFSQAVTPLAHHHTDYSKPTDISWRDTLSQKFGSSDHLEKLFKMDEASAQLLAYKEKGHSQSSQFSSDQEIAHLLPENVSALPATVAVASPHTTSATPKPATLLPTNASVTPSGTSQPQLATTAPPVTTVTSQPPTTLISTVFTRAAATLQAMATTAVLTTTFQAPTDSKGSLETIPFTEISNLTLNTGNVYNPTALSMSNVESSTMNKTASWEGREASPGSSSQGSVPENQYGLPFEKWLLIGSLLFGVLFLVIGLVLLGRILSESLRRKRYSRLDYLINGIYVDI
UniProt Q96LZ2: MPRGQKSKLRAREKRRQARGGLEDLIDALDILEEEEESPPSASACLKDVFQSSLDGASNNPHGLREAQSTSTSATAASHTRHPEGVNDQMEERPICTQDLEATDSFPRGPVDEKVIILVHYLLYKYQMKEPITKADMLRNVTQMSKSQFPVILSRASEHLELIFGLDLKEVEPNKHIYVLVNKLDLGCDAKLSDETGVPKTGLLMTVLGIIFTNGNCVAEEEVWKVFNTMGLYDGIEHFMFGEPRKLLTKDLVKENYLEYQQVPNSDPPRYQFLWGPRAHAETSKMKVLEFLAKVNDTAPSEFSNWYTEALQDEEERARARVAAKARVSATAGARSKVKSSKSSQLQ

Compound in the first test: C1COCCN1CCN2C3=CC=CC=C3N=C2NC(=O)C4=CC(=CC=C4)[N+](=O)[O-] [IRAK-1-4 Inhibitor I]
The test is described as follows: log2 fold change, soluble protein after heating vs DMSO (PISA); higher = thermal stabilisation; K562 cells, 10 uM, 30 min; active = over 0.2 and 3.5 SD of the protein, either way, in both replicates (recomputed). In a few lines:
(§1)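 K562 cells at 2×10^6 cells/mL were treated for 30 min with 10 μM compound, and aliquots were heated for 3 min over 48°C-58°C before pooling. Extraction used PBS with 0.5% NP-40 at 4°C, and soluble protein was the supernatant after 21,000xg for 90 min, measured by TMTpro 16plex LC-MS/MS with channel sums equalised. Thermal stability values, relative to control samples and from duplicates, are log2 fold changes.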
For MAP2K5 (UniProt Q13163), the log2 fold change was inactive: 0.063.
The same measure, in the same setting: with MAP3K20 isoform 2 (UniProt Q9NYL2) the figure was inactive: -0.164; with MAML1 (UniProt Q92585), inactive: 0.117; with MAPK11 (UniProt Q15759), inactive: -0.22.
Still for that read-out and setting: next, LRRFIP1 isoform 4 (UniProt Q32MZ4): inactive: -0.06; MAPK7 (UniProt Q13164): inactive: -0.033.
Same read-out and setting: next, MAPRE3 isoform 2 (UniProt Q9UPY8): inactive: -0.384; MAN2B1 (UniProt M0QYZ1): inactive: 0.156; LYN isoform 2 (UniProt P07948): inactive: 0.04.
Regarding LTBP4 (UniProt Q8N2S1), the log2 fold change was inactive: -0.054.
On the same count and under the same terms, next, MAD2L2 (UniProt Q9UI95): inactive: -0.31.

Compound in the next test: C=CC(=O)N1CCC[C@@H](n2nc(-c3ccc(Oc4ccccc4)cc3)c3c(N)ncnc32)C1 [ibrutinib]
Described as above. In a few lines:
as §1
For the target LRRC8B (UniProt Q6P9F7), the log2 fold change is inactive: -0.038.
The same measure, in the same setting: next, MAP4 isoform 5 (UniProt P27816): inactive: 0.076; MARCHF3 (UniProt Q86UD3): inactive: 0.073.
The same measure, in the same setting: with LTBP1 isoform 4 (UniProt Q14766) the figure was inactive: 0.044; with MAP7D3 (UniProt Q8IWC1), inactive: -0.047.
Turning to MAP3K10 (UniProt Q02779), the log2 fold change was inactive: -0.148.
On the same count and under the same terms, with LYST (UniProt Q99698) the figure was inactive: -0.095; with MAPT isoform 9 (UniProt P10636), inactive: 0.043.

Compound in a further test: CC(=O)c1cnc2ccc(-c3cc(Cl)c(O)c(Cl)c3)nc2c1N[C@H]1CC[C@H](CN(C)C)CC1
The test is described as above. In a few lines: as §1
MAP2K5 (UniProt Q13163): the log2 fold change is active: -1.19.
The same measure, in the same setting: next, MAP3K20 isoform 2 (UniProt Q9NYL2): inactive: -0.126; MAFG (UniProt O15525): inactive: -0.079; MAP4 isoform 5 (UniProt P27816): inactive: 0.142.
The same measure, in the same setting: with MANSC1 (UniProt Q9H8J5) the figure was inactive: 0.028; with LSM14A, A0A140TA76, inactive: -0.127.
As to MAGED1 isoform 2 (UniProt Q9Y5V3), the log2 fold change was inactive: 0.03.
On the same count and under the same terms, next, LRRCC1 (UniProt Q9C099): inactive: 0.047; LTBP1 isoform 4 (UniProt Q14766): inactive: -0.007.
Same read-out and setting: with LRRFIP1 isoform 4 (UniProt Q32MZ4) the figure was inactive: 0.163.
Same read-out and setting: next, MAPK7 (UniProt Q13164): active: 1.41; MAPRE3 isoform 2 (UniProt Q9UPY8): inactive: -0.139; MAN2B1 (UniProt M0QYZ1): inactive: -0.131.
As for MAP3K10 (UniProt Q02779), the log2 fold change was inactive: -0.008.
Same read-out and setting: with MAGEB10 (UniProt Q96LZ2) the figure was inactive: 0.172; with LYN isoform 2 (UniProt P07948), inactive: -0.246.
Still for that read-out and setting: with LTBP4 (UniProt Q8N2S1) the figure was inactive: 0.025; with MAD2L2 (UniProt Q9UI95), inactive: -0.071; with MAPT isoform 9 (UniProt P10636), inactive: 0.065.

The record behind these values is the supplement of paper PMC10849652.
